Literature values as cited in patent US6372957B1, “Transgenic mouse comprising a MEF2 binding site operatively linked to an indicator gene and methods of use” (Board of Regents, The University of Texas System, priority 1998, dated 2002).
For at least one compound, name, drawing or mass did not settle the structure.

Tested on: BZLF1
Settings: Liu et al., 1997; cited from earlier work

C=CC[C@@H]1/C=C(\C)C[C@H](C)C[C@H](OC)[C@H]2O[C@@](O)(C(=O)C(=O)N3CCCC[C@H]3C(=O)O[C@H](/C(C)=C/[C@@H]3CC[C@@H](O)[C@H](OC)C3)[C@H](C)[C@@H](O)CC1=O)[C@H](C)C[C@@H]2OC [FK-506]
transcription of BZLF1: inhibited
